From publication PMC6588346
These are yes or no findings as the source states them, for the method shown. In cells and extracts the contact can be indirect. These calls come from enrichment with a bait or labelling near it, and not all partners need be listed.

Chains of the proteins cited; added tags and fusions are not shown.
UniProt P18850: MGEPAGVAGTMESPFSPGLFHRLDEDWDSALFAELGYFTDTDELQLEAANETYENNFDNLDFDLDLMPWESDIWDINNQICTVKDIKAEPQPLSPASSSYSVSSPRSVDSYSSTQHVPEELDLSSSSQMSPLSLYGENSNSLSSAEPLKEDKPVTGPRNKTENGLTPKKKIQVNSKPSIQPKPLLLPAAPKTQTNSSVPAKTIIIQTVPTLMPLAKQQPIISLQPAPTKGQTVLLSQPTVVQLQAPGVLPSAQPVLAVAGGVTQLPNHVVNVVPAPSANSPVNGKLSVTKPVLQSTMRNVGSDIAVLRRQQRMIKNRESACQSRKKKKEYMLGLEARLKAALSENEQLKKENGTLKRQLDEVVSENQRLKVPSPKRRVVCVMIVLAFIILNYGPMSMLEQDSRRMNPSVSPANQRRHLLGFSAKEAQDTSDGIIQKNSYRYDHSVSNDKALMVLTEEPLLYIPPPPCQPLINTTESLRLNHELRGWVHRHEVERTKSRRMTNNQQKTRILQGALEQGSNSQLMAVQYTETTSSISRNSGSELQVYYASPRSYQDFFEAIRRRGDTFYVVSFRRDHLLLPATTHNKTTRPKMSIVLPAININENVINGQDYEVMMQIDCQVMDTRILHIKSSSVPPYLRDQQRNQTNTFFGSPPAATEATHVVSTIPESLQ

Biological target: 6xHis-3xFLAG-HsATF6α (human) (UniProt P18850)
Test: affinity purification with mass spectrometry; anti-FLAG M2 beads, native IP from 3xFLAG-ATF6α HEK293 cells treated with 100 nM Tg and 6 μM Ceapin-A7 for 30 min; 1% LMNG lysis, Ceapin kept in the buffers; TMT, MuDPIT

SQSTM1 (from UniProt Q13501 1-440)
binding: binds
